The source of these data is patent EP2045266A1, “Methods for treating and diagnosing a cancer secreting cath-D or Alzheimer's disease” (priority 2007, dated 2009).

Chains of the proteins cited; added tags and fusions are not shown. Lines headed by an entry give the natural chain unless they say otherwise; changes in a name come on top.
UniProt Q07954: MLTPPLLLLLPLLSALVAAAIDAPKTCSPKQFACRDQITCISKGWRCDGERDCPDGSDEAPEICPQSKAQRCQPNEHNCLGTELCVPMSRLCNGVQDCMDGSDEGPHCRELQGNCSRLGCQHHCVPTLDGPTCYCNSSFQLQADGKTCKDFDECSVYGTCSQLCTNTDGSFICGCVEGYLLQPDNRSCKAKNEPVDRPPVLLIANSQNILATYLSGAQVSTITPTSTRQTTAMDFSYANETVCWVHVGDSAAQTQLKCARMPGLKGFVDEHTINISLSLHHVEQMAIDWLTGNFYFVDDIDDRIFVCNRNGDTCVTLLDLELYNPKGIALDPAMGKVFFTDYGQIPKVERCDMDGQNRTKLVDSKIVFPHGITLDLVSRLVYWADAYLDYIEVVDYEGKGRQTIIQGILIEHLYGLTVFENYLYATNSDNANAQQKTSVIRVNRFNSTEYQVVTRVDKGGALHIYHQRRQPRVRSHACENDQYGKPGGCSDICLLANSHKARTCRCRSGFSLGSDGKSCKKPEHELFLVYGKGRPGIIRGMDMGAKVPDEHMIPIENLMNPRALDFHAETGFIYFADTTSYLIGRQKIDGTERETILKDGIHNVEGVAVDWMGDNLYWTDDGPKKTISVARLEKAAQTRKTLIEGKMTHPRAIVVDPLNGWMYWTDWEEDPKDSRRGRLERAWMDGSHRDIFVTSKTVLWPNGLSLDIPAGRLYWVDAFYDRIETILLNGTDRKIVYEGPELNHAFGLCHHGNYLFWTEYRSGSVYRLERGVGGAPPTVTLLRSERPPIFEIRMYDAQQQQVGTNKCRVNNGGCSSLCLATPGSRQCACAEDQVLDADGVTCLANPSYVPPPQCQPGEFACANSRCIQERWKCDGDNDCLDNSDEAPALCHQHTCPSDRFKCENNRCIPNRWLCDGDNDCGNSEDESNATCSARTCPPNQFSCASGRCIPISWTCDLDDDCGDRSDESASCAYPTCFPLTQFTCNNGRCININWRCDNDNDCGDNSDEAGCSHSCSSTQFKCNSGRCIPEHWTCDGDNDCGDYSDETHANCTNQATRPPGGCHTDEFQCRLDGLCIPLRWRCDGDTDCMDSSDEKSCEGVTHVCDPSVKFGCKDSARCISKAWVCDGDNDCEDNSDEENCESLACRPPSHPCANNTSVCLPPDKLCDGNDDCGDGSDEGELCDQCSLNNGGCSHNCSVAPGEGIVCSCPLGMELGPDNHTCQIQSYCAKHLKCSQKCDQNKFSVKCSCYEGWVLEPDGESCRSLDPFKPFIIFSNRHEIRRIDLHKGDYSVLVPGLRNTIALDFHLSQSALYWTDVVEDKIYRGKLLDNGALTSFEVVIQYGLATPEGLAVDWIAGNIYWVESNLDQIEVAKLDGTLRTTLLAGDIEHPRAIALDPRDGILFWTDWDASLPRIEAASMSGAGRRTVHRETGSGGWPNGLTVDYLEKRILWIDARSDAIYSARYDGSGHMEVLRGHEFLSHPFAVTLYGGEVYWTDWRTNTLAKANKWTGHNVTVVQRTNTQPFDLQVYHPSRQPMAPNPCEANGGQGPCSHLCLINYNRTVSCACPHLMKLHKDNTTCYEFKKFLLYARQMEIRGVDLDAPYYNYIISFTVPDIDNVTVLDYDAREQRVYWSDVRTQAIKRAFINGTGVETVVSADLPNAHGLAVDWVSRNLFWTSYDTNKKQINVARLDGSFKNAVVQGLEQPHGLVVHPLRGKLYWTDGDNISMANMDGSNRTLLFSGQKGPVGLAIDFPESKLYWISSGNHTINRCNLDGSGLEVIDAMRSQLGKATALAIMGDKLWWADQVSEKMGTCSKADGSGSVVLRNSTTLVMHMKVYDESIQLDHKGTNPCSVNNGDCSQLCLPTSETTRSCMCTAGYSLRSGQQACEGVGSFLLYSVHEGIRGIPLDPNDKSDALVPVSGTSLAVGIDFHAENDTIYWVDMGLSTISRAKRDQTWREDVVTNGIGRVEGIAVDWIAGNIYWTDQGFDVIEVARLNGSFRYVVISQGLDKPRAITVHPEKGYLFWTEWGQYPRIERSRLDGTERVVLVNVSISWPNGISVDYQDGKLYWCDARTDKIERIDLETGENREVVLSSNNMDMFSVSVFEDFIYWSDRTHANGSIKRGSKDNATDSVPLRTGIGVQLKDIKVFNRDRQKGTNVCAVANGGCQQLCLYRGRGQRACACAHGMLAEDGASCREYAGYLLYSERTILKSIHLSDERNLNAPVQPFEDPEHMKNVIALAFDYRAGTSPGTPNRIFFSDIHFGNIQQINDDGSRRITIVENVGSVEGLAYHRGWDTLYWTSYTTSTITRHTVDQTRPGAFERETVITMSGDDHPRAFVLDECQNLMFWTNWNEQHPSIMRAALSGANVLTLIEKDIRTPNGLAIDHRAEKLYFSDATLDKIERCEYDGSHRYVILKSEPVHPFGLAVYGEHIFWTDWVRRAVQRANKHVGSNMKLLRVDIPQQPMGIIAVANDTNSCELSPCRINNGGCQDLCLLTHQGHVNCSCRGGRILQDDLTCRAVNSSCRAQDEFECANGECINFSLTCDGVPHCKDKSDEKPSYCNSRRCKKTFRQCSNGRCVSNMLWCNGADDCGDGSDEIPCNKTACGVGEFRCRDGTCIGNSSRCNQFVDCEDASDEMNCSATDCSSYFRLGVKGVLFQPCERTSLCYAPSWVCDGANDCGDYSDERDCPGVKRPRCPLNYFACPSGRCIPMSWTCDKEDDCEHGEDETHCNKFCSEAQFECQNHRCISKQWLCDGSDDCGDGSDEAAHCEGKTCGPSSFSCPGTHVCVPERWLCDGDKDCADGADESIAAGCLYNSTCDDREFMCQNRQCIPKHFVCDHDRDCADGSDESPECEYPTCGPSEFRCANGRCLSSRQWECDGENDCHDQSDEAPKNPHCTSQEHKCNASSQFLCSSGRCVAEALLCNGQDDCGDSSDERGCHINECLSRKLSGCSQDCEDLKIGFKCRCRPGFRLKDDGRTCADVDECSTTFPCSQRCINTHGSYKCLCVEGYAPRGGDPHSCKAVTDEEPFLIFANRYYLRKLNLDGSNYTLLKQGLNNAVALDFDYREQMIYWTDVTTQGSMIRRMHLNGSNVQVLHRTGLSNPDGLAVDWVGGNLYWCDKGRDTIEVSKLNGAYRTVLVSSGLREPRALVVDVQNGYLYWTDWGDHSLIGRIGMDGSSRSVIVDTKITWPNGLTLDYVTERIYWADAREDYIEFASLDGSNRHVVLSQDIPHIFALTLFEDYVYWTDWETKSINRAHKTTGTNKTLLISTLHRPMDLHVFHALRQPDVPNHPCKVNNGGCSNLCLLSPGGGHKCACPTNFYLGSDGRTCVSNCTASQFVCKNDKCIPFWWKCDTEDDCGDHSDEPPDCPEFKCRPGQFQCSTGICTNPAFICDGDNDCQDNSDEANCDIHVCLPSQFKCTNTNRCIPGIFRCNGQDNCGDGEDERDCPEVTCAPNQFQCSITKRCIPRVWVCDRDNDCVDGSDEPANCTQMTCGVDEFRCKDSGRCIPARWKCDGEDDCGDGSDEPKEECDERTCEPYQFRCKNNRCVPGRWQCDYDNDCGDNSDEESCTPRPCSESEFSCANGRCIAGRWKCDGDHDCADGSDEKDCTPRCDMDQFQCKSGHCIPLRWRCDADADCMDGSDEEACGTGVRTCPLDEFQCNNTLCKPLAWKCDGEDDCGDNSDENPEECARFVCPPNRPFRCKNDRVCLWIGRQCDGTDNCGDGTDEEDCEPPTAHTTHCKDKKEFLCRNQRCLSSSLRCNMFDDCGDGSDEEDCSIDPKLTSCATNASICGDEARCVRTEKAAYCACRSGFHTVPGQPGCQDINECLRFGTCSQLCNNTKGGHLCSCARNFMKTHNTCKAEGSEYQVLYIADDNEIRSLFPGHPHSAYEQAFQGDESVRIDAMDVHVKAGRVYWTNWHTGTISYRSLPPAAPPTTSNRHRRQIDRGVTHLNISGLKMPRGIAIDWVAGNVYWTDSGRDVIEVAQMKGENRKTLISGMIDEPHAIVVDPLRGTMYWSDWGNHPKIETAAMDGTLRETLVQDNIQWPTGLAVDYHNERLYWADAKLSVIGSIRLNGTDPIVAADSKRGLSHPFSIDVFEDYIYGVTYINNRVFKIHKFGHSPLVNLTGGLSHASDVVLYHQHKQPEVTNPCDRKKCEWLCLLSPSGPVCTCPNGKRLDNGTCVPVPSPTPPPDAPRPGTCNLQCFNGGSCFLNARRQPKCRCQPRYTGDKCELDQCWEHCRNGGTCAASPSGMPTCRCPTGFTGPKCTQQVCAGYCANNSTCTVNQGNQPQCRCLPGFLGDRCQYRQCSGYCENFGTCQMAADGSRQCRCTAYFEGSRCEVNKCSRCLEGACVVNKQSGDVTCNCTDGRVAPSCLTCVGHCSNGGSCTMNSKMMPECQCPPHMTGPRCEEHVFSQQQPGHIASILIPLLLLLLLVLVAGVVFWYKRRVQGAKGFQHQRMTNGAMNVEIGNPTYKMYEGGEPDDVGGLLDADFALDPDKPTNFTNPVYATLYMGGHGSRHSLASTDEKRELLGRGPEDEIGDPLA
UniProt P07339: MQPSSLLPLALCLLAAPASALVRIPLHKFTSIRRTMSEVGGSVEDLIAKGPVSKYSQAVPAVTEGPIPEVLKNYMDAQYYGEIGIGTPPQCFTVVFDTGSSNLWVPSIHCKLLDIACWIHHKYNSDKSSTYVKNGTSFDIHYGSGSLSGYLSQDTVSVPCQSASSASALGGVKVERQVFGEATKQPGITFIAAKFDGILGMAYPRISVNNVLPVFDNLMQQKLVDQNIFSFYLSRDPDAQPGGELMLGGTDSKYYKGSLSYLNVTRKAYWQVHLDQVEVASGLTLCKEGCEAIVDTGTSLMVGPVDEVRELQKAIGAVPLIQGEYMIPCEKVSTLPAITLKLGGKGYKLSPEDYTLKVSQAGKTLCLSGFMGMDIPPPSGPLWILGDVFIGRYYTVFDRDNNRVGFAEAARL

No constants are given. Whether binding was seen depends on the method and setting. In cells and extracts the contact can be indirect. Binding can be weak; no strength is given.

This experiment has as its target LRP1-IV-HA mini-receptor (UniProt Q07954). Kind of experiment: co-immunoprecipitation from co-transfected COS cells, anti-LRP1β IP, anti-cath-D blot.

In the case of “D231N cath-D (catalytically inactive mutant of human cath-D, precursor form) (from UniProt P07339) (enzyme)”, the binding result is listed as “binds”.
